From the supplement of paper PMC10849652
Some of the results follow.

Sequences of proteins named here, by UniProt entry; tags and fusion partners are left off. A change or cut given only in a name is not applied to a line headed by its entry.
UniProt Q96ER9: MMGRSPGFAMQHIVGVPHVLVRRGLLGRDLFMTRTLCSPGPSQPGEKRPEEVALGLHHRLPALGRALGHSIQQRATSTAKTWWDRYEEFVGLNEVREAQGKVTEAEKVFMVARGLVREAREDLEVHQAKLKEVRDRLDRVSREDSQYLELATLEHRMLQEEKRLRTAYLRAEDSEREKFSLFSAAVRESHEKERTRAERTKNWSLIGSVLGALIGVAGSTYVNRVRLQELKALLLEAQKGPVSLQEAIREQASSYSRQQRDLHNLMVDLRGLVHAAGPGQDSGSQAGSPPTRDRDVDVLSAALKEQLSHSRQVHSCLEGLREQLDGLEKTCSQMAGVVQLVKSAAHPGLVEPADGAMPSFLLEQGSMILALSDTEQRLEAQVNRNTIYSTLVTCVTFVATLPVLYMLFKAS
UniProt P08962, whole entry, looked up: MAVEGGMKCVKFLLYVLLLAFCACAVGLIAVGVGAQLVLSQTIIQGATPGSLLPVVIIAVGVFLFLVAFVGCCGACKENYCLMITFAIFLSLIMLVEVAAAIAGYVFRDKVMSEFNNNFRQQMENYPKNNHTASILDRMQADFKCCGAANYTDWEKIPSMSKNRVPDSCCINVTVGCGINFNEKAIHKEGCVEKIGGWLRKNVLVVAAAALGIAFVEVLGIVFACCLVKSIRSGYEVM
UniProt Q9ULG6: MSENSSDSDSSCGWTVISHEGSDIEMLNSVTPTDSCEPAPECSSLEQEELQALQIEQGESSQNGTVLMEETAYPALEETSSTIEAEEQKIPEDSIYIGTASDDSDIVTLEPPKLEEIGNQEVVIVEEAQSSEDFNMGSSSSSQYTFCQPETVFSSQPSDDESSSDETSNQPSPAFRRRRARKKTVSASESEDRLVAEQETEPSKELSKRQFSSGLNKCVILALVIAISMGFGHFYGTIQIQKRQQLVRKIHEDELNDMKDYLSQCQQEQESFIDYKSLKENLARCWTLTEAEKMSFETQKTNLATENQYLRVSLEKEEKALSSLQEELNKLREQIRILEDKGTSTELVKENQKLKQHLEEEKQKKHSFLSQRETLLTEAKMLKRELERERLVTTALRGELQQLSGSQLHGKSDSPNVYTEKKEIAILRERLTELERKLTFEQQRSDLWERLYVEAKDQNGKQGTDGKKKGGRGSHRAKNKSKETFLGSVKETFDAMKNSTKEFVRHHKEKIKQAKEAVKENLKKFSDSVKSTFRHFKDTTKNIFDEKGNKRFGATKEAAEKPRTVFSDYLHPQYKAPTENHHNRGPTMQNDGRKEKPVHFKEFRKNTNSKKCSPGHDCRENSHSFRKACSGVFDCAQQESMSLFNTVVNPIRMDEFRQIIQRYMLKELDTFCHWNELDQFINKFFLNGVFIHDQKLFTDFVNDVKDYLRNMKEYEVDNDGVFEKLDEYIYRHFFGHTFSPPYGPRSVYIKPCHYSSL
UniProt Q9Y5K6, whole entry, looked up: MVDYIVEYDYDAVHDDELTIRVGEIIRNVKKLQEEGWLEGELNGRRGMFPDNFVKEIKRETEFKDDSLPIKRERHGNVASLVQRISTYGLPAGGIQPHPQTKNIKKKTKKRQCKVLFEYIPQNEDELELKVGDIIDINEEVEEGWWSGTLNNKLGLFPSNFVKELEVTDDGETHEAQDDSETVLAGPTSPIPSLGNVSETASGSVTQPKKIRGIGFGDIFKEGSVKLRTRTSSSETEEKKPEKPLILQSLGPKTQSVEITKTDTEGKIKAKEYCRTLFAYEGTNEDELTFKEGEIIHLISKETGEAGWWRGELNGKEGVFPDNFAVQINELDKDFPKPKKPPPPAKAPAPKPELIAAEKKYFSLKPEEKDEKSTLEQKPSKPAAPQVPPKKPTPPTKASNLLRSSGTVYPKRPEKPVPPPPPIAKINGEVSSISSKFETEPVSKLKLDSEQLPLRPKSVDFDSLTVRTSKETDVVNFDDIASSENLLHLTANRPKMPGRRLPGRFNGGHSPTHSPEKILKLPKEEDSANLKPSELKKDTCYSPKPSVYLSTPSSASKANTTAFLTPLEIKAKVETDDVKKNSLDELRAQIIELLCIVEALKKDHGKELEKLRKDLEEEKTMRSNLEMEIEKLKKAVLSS
UniProt O15234, whole entry, looked up: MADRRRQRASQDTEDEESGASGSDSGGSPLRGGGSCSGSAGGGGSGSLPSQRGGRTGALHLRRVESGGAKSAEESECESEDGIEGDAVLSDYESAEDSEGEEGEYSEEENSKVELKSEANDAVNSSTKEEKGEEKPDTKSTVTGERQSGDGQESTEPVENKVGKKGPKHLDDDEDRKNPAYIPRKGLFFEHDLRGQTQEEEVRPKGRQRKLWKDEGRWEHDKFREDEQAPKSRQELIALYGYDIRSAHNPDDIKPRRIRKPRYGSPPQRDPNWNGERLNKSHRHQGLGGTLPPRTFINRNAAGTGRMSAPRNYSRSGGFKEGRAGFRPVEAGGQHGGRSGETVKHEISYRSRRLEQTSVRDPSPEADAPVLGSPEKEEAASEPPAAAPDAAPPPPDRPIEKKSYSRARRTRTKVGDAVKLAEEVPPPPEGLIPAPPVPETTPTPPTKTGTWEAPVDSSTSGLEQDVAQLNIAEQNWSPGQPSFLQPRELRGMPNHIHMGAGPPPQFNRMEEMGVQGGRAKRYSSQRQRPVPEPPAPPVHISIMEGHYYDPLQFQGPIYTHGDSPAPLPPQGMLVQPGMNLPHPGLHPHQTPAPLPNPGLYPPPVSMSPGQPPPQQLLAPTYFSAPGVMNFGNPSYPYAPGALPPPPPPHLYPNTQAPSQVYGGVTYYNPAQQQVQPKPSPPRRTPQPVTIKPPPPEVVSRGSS
UniProt P78371: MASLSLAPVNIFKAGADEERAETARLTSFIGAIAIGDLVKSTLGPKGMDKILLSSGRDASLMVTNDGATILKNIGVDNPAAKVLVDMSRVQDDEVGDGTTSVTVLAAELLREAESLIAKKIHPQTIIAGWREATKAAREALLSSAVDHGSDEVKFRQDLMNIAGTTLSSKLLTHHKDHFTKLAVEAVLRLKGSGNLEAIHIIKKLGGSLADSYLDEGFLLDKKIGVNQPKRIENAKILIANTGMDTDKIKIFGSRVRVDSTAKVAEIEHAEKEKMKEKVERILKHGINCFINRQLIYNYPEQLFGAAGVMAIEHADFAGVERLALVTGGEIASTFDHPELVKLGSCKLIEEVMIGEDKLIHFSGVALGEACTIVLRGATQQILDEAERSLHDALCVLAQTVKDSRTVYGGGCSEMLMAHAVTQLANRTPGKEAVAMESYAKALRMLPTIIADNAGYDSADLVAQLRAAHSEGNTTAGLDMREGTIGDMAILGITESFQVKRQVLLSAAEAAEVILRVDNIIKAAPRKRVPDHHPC
UniProt P50990: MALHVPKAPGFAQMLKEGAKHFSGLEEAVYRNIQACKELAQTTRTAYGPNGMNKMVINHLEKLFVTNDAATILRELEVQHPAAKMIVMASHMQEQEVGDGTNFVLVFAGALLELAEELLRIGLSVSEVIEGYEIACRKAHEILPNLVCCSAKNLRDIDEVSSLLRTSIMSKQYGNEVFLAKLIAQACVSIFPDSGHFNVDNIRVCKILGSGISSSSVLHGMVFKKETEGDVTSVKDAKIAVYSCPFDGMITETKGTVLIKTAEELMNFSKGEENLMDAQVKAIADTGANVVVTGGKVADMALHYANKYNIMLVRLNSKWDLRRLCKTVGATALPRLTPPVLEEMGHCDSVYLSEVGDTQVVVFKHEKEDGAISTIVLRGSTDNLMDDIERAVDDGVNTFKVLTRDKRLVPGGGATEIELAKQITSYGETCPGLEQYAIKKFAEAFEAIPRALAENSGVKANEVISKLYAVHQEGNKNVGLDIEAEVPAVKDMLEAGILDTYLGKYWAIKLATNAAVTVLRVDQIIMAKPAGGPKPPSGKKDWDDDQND
UniProt P60033: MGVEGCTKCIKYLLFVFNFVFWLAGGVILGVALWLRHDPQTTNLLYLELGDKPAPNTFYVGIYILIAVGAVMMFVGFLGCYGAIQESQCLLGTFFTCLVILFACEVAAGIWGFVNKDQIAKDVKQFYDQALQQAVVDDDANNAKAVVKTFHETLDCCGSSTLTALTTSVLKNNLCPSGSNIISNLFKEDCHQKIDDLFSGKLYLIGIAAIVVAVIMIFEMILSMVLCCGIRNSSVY
UniProt P50991: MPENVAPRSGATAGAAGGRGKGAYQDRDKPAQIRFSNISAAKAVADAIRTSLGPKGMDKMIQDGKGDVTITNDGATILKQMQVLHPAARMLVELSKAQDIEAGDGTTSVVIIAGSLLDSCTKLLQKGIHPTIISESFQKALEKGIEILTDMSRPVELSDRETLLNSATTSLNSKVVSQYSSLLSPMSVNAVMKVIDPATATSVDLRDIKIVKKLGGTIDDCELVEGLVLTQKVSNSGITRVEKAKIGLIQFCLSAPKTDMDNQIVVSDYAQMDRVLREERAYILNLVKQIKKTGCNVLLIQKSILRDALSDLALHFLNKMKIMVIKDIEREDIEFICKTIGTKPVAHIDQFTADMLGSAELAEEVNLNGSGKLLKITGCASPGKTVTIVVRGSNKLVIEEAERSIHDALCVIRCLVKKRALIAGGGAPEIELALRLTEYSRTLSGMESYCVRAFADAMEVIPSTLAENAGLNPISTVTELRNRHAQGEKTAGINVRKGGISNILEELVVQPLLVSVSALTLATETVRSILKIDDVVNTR
UniProt P15529: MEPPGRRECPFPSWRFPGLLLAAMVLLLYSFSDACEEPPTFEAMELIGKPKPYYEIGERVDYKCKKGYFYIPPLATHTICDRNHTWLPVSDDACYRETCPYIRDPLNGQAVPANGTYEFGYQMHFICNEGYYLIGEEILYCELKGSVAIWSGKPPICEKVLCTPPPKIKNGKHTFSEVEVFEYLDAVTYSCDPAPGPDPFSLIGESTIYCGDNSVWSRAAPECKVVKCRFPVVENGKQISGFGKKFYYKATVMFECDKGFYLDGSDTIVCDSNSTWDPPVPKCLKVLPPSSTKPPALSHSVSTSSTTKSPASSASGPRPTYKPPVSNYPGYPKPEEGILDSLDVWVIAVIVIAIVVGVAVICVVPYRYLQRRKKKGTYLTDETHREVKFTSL
UniProt Q4G0I0: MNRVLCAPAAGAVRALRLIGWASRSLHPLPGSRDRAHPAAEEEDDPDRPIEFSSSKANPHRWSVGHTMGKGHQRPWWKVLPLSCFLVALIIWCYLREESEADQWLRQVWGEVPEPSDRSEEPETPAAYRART
UniProt Q9BSQ5: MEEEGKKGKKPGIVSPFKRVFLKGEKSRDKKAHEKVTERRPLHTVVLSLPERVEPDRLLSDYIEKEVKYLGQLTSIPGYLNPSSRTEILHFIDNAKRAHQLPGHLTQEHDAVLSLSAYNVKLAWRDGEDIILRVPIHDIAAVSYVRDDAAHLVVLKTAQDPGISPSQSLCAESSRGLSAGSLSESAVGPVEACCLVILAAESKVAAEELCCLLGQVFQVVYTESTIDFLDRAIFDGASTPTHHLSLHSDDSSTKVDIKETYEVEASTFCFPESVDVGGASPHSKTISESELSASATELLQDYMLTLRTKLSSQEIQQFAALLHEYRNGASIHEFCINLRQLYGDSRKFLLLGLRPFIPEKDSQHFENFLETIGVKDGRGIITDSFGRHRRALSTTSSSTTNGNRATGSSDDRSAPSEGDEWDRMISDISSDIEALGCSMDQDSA
UniProt P86791: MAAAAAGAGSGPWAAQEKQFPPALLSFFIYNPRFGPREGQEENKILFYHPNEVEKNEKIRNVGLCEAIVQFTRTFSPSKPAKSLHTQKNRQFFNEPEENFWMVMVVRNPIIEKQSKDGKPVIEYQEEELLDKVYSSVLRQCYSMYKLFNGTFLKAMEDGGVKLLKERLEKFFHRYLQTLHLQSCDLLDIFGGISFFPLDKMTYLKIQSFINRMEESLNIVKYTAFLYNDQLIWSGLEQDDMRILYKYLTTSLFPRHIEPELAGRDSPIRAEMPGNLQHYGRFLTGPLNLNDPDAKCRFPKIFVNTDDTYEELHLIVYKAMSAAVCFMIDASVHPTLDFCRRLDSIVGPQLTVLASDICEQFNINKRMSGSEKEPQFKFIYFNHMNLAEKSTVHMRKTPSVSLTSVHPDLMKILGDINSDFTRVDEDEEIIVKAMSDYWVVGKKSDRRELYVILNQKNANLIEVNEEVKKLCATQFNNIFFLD
UniProt Q6PK04: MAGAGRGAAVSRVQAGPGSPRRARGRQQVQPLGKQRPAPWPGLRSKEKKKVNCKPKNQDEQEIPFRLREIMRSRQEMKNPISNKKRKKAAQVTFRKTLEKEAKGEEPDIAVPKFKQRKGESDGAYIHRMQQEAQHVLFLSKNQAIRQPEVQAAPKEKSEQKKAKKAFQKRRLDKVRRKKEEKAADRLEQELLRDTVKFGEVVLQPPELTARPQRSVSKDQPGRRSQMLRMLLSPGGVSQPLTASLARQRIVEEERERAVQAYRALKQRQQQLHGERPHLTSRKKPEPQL

What was measured:
Assay in all cases: log2 fold change, soluble protein after heating vs DMSO (PISA); higher = thermal stabilisation; K562 lysate, 10 uM; active = over 0.2 and 3.5 SD of the protein, either way, in both replicates (recomputed)
[1] = compound: CCCS(=O)(=O)Nc1ccc(F)c(C(=O)c2c[nH]c3ncc(-c4ccc(Cl)cc4)cc23)c1F [vemurafenib]
Procedure, shortened: (§1)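 A 30 min treatment with 10 μM compound was applied to crude K562 extract at 1 mg/mL protein in PBS pH 7.4 with 1 mM MgCl2. Heating for 3 min spanned 48°C-58°C, after which aliquots were pooled, adjusted to 0.5% NP-40 at 4°C and spun at 21,000xg for 90 min. TMTpro 16plex LC-MS/MS of the supernatant, with channel sums equalised, gave values recorded as log-two fold change in thermal stability against solvent controls, from duplicates.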

[2] = compound: CCCS(=O)(=O)Nc1ccc(F)c(C(=O)c2c[nH]c3ncc(Cl)cc23)c1F
Procedure, shortened: as §1

[3] = compound: CCN(CCCOc1ccc2c(Nc3cc(CC(=O)Nc4cccc(F)c4)[nH]n3)ncnc2c1)CCOP(=O)(O)O [barasertib]
Procedure, shortened: as §1

[4] = compound: CC[C@@H]1C(=O)N(C)c2cnc(Nc3ccc(C(=O)NC4CCN(C)CC4)cc3OC)nc2N1C1CCCC1
Procedure, shortened: as §1

[5] = compound: CC[C@@H]1C(=O)N(C)c2cnc(Nc3ccc(C(=O)N[C@H]4CC[C@H](N5CCN(CC6CC6)CC5)CC4)cc3OC)nc2N1C(C)C [volasertib]
Procedure, shortened: as §1

[6] = compound: CCn1c(C(=O)N(C2CC2)C2CC2)cc2c3c(ncn3C)c(Nc3cc(C)n(C)n3)nc21
Procedure, shortened: as §1

[7] = compound: CCn1cc(-c2ccnc3[nH]c(-c4cccc(CN(C)C)c4)cc23)c(-c2ccc(NC(=O)N(C)C)cc2)n1
Procedure, shortened: as §1

[8] = compound: CN1CCC(CNc2ccc3ncc(-c4cccc(OC(F)(F)F)c4)n3n2)CC1
Procedure, shortened: as §1

[9] = compound: CN1CCN(CCOc2cc(OC3CCOCC3)c3c(Nc4c(Cl)ccc5c4OCO5)ncnc3c2)CC1 [saracatinib]
Procedure, shortened: as §1

[10] = compound: CN1CCN(c2nc(C3=C(c4c[nH]c5ccccc45)C(=O)NC3=O)c3ccccc3n2)CC1 [sotrastaurin]
Procedure, shortened: as §1

[11] = compound: CN1CC[C@H](c2c(O)cc(O)c3c(=O)cc(-c4ccccc4Cl)oc23)[C@H](O)C1 [alvocidib]
Procedure, shortened: as §1

[12] = compound: CN1CCc2c(c3ccccc3n2Cc2ccc(C(=O)NO)cc2)C1 [Tubastatin A]
Procedure, shortened: as §1

[13] = compound: CNC(=O)C1=CC=CC=C1NC2=NC(=NC=C2Cl)NC3=C(C=C(C=C3)N4CCOCC4)OC
Procedure, shortened: as §1

[14] = compound: CNC(=O)c1ccc(Nc2ncc(C(F)(F)F)c(NCc3nccnc3N(C)S(C)(=O)=O)n2)cc1 [defactinib]
Procedure, shortened: as §1

[15] = compound: CNc1nc(-c2ccc3c(N)n[nH]c3c2)cc(N2C[C@@H](C(=O)NC3CCCCC3)CC[C@H]2C)n1
Procedure, shortened: as §1

[16] = compound: COC(=O)N[C@@H](C)CNc1nccc(-c2cn(C(C)C)nc2-c2cc(Cl)cc(NS(C)(=O)=O)c2F)n1 [encorafenib]
Procedure, shortened: as §1

[17] = compound: COC(=O)[C@H](CCSC)NC(=O)C1=C(C=C(C=C1)NC[C@H](CS)N)C2=CC=CC=C2
Procedure, shortened: as §1

[18] = compound: COc1cc(Nc2ncc3c(n2)-c2ccc(Cl)cc2C(c2c(F)cccc2OC)=NC3)ccc1C(=O)O [alisertib]
Procedure, shortened: as §1

[19] = compound: COc1cc2nc(-c3cc(F)ccc3O)nc(N[C@@H]3CNC[C@H]3C(C)(C)O)c2cc1OC
Procedure, shortened: as §1

[20] = compound: COc1cc2ncnc(Nc3ccc(F)c(Cl)c3)c2cc1OCCCN1CCOCC1 [gefitinib]
Procedure, shortened: as §1

| Target | log2 fold change [1] | log2 fold change [2] | log2 fold change [3] | log2 fold change [4] | log2 fold change [5] | log2 fold change [6] | log2 fold change [7] | log2 fold change [8] | log2 fold change [9] | log2 fold change [10] | log2 fold change [11] | log2 fold change [12] | log2 fold change [13] | log2 fold change [14] | log2 fold change [15] | log2 fold change [16] | log2 fold change [17] | log2 fold change [18] | log2 fold change [19] | log2 fold change [20] |
| --- | --- | --- | --- | --- | --- | --- | --- | --- | --- | --- | --- | --- | --- | --- | --- | --- | --- | --- | --- | --- |
| CCDC51 (UniProt Q96ER9) | inactive: 0.001 | inactive: -0.008 | inactive: 0.027 | inactive: -0.005 | inactive: 0.002 | inactive: -0.009 | active: 0.262 | active: -0.422 | inactive: -0.034 | inactive: -0.072 | inactive: 0.127 | inactive: -0.037 | inactive: -0.001 | inactive: 0.008 | inactive: 0.038 | inactive: -0.008 | inactive: -0.001 | inactive: 0.016 | inactive: -0.066 | inactive: 0.022 |
| CD63 (UniProt P08962) | inactive: -0.079 | inactive: 0.084 | inactive: 0.037 | inactive: -0.036 | inactive: 0.023 | inactive: -0.011 | active: -0.593 | inactive: 0.175 | inactive: 0.073 | inactive: 0.057 | inactive: -0.184 | inactive: 0.023 | inactive: -0.013 | inactive: 0.089 | inactive: -0.101 | inactive: 0.046 | inactive: -0.055 | inactive: 0.01 | inactive: -0.02 | inactive: -0.023 |
| CCPG1 isoform 5 (UniProt Q9ULG6) | inactive: 0.082 | inactive: -0.038 | inactive: 0.034 | inactive: 0.066 | inactive: 0 | inactive: 0.071 | inactive: -0.081 | inactive: 0.04 | inactive: 0.049 | inactive: 0.051 | inactive: 0.029 | inactive: 0.006 | inactive: 0.028 | inactive: -0.03 | inactive: -0.02 | inactive: 0.049 | inactive: -0.165 | inactive: -0.073 | active: 0.303 | inactive: -0.061 |
| CD2AP (UniProt Q9Y5K6) | inactive: 0.02 | inactive: -0.006 | inactive: -0.042 | inactive: 0.037 | inactive: 0.012 | inactive: -0.026 | inactive: -0.034 | inactive: 0.011 | inactive: -0.006 | inactive: 0.001 | inactive: 0.003 | inactive: 0.061 | inactive: 0.011 | inactive: -0.01 | inactive: 0.013 | inactive: -0.004 | inactive: -0.061 | inactive: -0.015 | inactive: -0.007 | inactive: 0.023 |
| CASC3 (UniProt O15234) | inactive: 0.017 | inactive: 0 | inactive: -0.015 | inactive: 0.105 | inactive: 0.01 | inactive: 0.046 | inactive: -0.035 | inactive: 0.046 | inactive: 0.064 | inactive: -0.012 | inactive: -0.045 | inactive: 0.073 | inactive: -0.023 | inactive: 0.012 | inactive: 0.001 | inactive: 0.065 | inactive: -0.057 | inactive: 0.035 | inactive: 0.012 | inactive: 0.007 |
| CCT2 (UniProt P78371) | inactive: -0.022 | inactive: -0.011 | inactive: -0.042 | inactive: -0.015 | inactive: 0.01 | inactive: -0.005 | inactive: 0.03 | inactive: -0.02 | inactive: -0.007 | inactive: -0.018 | inactive: 0.013 | inactive: 0.037 | inactive: 0.01 | inactive: -0.013 | inactive: -0.019 | inactive: -0.009 | inactive: -0.018 | inactive: 0.003 | inactive: 0.001 | inactive: -0.021 |
| CCT8 (UniProt P50990) | inactive: -0.004 | inactive: -0.014 | inactive: -0.019 | inactive: -0.005 | inactive: 0.016 | inactive: -0.021 | inactive: -0.005 | inactive: 0.014 | inactive: -0.002 | inactive: -0.01 | inactive: 0.018 | inactive: 0.022 | inactive: -0.03 | inactive: -0.021 | inactive: 0.011 | inactive: -0.009 | inactive: -0.01 | inactive: 0.007 | inactive: -0.007 | inactive: -0.026 |
| CD81 (UniProt P60033) | inactive: 0.092 | inactive: -0.002 | inactive: -0.07 | inactive: 0.125 | inactive: 0.058 | inactive: 0.035 | inactive: 0 | inactive: 0.116 | inactive: -0.041 | inactive: 0.141 | inactive: -0.022 | inactive: 0.024 | inactive: -0.034 | inactive: -0.088 | inactive: -0.097 | inactive: 0.108 | inactive: -0.097 | inactive: -0.025 | inactive: -0.002 | inactive: 0.112 |
| CCT4 (UniProt P50991) | inactive: -0.015 | inactive: -0.006 | inactive: -0.019 | inactive: -0.063 | inactive: 0.002 | inactive: 0.019 | inactive: -0.002 | inactive: 0.014 | inactive: -0.011 | inactive: -0.018 | inactive: 0.046 | inactive: 0.005 | inactive: -0.019 | inactive: 0.001 | inactive: -0.009 | inactive: 0.004 | inactive: -0.012 | inactive: -0.014 | inactive: -0.01 | inactive: -0.023 |
| CD46 isoform 2 (UniProt P15529) | inactive: -0.019 | inactive: -0.009 | inactive: 0.011 | inactive: 0.021 | inactive: 0.011 | inactive: 0.029 | inactive: -0.007 | inactive: -0.018 | inactive: 0.065 | inactive: 0.056 | inactive: 0.003 | inactive: 0.01 | inactive: -0.015 | inactive: 0.002 | inactive: -0.071 | inactive: -0.037 | inactive: -0.032 | inactive: 0.002 | inactive: -0.001 | inactive: 0.02 |
| CCDC6 (UniProt Q16204) | inactive: -0.015 | inactive: 0.001 | inactive: -0.013 | inactive: 0.037 | inactive: 0.034 | inactive: 0.026 | inactive: -0.035 | inactive: 0.044 | inactive: -0.008 | inactive: -0.018 | inactive: -0.005 | inactive: 0.006 | inactive: 0.001 | inactive: 0.005 | inactive: -0.018 | inactive: 0.002 | inactive: -0.037 | inactive: -0.006 | inactive: 0.009 | inactive: -0.026 |
| CCSMST1 (UniProt Q4G0I0) | inactive: 0.055 | inactive: 0.018 | inactive: 0.241 | inactive: -0.008 | inactive: 0.028 | inactive: 0.015 | inactive: 0.009 | inactive: -0.058 | inactive: -0.12 | inactive: 0.051 | inactive: 0.015 | inactive: 0.049 | inactive: 0.034 | inactive: 0.018 | inactive: -0.043 | inactive: 0.027 | inactive: 0.031 | inactive: -0.042 | inactive: -0.022 | inactive: -0.273 |
| CCM2 isoform 2 (UniProt Q9BSQ5) | inactive: -0.043 | inactive: 0.048 | inactive: -0.012 | inactive: 0.039 | inactive: -0.029 | inactive: 0.002 | inactive: -0.052 | inactive: -0.023 | inactive: -0.011 | inactive: 0.085 | inactive: -0.029 | inactive: 0.046 | inactive: 0.011 | inactive: 0.038 | inactive: 0.016 | inactive: -0.036 | inactive: -0.101 | inactive: -0.01 | inactive: 0.044 | inactive: -0.019 |
| CCZ1 (UniProt P86791) | inactive: 0.032 | inactive: 0.002 | inactive: 0.005 | inactive: -0.02 | inactive: -0.01 | inactive: 0.044 | inactive: -0.07 | inactive: 0.015 | inactive: 0 | inactive: -0.003 | inactive: -0.01 | inactive: -0.043 | inactive: 0.008 | inactive: 0.041 | inactive: -0.059 | inactive: 0.016 | inactive: -0.107 | inactive: -0.024 | inactive: -0.016 | inactive: 0.011 |
| CBX4 (UniProt O00257) | inactive: 0.019 | inactive: 0.004 | inactive: 0.039 | inactive: 0.163 | inactive: 0.016 | inactive: -0.154 | inactive: 0.055 | inactive: -0.045 | inactive: 0.01 | inactive: -0.046 | inactive: -0.075 | inactive: 0.144 | inactive: -0.014 | inactive: 0.175 | inactive: 0.162 | inactive: 0.081 | inactive: -0.041 | inactive: -0.059 | inactive: 0.11 | inactive: -0.031 |
| CCDC137 (UniProt Q6PK04) | inactive: -0.011 | inactive: 0.046 | inactive: -0.019 | inactive: 0.121 | inactive: -0.018 | inactive: -0.016 | inactive: 0.008 | inactive: -0.035 | inactive: -0.026 | inactive: -0.046 | inactive: -0.039 | inactive: 0.016 | inactive: -0.017 | inactive: 0.057 | inactive: 0.005 | inactive: 0.051 | inactive: 0.053 | inactive: -0.076 | inactive: -0.023 | inactive: -0.108 |

Fetched one by one from above:

| Target | log2 fold change [1] | log2 fold change [2] | log2 fold change [3] | log2 fold change [4] | log2 fold change [5] | log2 fold change [6] | log2 fold change [7] | log2 fold change [8] | log2 fold change [9] | log2 fold change [10] | log2 fold change [11] | log2 fold change [12] | log2 fold change [13] | log2 fold change [14] | log2 fold change [15] | log2 fold change [16] | log2 fold change [17] | log2 fold change [18] | log2 fold change [19] | log2 fold change [20] |
| --- | --- | --- | --- | --- | --- | --- | --- | --- | --- | --- | --- | --- | --- | --- | --- | --- | --- | --- | --- | --- |
| CD63 (UniProt P08962) | inactive: -0.079 | inactive: 0.084 | inactive: 0.037 | inactive: -0.036 | inactive: 0.023 | inactive: -0.011 | active: -0.593 | inactive: 0.175 | inactive: 0.073 | inactive: 0.057 | inactive: -0.184 | inactive: 0.023 | inactive: -0.013 | inactive: 0.089 | inactive: -0.101 | inactive: 0.046 | inactive: -0.055 | inactive: 0.01 | inactive: -0.02 | inactive: -0.023 |
| CCT4 (UniProt P50991) | inactive: -0.015 | inactive: -0.006 | inactive: -0.019 | inactive: -0.063 | inactive: 0.002 | inactive: 0.019 | inactive: -0.002 | inactive: 0.014 | inactive: -0.011 | inactive: -0.018 | inactive: 0.046 | inactive: 0.005 | inactive: -0.019 | inactive: 0.001 | inactive: -0.009 | inactive: 0.004 | inactive: -0.012 | inactive: -0.014 | inactive: -0.01 | inactive: -0.023 |
